Measurements reported in PubChem BioAssay AID1224828 (NIAID, 2016).
Screen: 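Regulators linking TLR4 signalling to p65 nuclear translocation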 (primary screen). Cell system: mouse RAW264.7 G9 macrophage reporter cells (GFP-p65, Tnf promoter-mCherry). Reagents: siRNA pool against mouse genes, 100 nM. Duration: 2 days siRNA transfection, then 40 min LPS before fixation. Conditions: LPS (Salmonella minnesota R595) at 10 ng/ml. Detection: 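Microscopy ratio of nuclear to perinuclear-ring GFP-p65 signal, scaled to the plate median; gene score is the average of two replicate robust z-scores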. Reading the numbers: p65 translocation robust z-score: higher = more nuclear NF-kappaB p65 after LPS than the plate median; nuclear/cytoplasmic p65 ratio: higher = more nuclear NF-kappaB p65. Call rule: 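Called active when z exceeds 3.3 or falls under -1.56 (median of Tlr4 controls), giving activity score of at least 50; no calls for control wells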. Meaning of the calls: active = hit (p65 shift raised or lowered); inactive = no clear change.
Here is one part, drawn at random, of about 17,000 deposited reagents. Over the whole deposit, 762 (4.5%) were called active. 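Active calls include both raised and lowered p65 entry, mostly lowered; wells with fewer than 50 cells lack a z-score.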 Raw values vary from plate to plate and are shown uncorrected. No sequences are given here.

Il2rb (interleukin 2 receptor, beta chain) → p65 translocation robust z-score = 0.73; nuclear/cytoplasmic p65 ratio, rep 1 = 1.58; nuclear/cytoplasmic p65 ratio, rep 2 = 1.47; low cell count flag = enough cells to score; outcome = inactive
Nherf1 (NHERF family PDZ scaffold protein 1) → p65 translocation robust z-score = 0.03; nuclear/cytoplasmic p65 ratio, rep 1 = 1.41; nuclear/cytoplasmic p65 ratio, rep 2 = 1.25; low cell count flag = enough cells to score; outcome = inactive
Sos1 (SOS Ras/Rac guanine nucleotide exchange factor 1) → p65 translocation robust z-score = 1.08; nuclear/cytoplasmic p65 ratio, rep 1 = 1.61; nuclear/cytoplasmic p65 ratio, rep 2 = 1.8; low cell count flag = enough cells to score; outcome = inactive
Slc25a20 → p65 translocation robust z-score = 0.14; nuclear/cytoplasmic p65 ratio, rep 1 = 1.53; nuclear/cytoplasmic p65 ratio, rep 2 = 1.84; low cell count flag = enough cells to score; outcome = inactive
Necab2 (N-terminal EF-hand calcium binding protein 2) → nuclear/cytoplasmic p65 ratio, rep 1 = 1.33; nuclear/cytoplasmic p65 ratio, rep 2 = 1.33; low cell count flag = fewer than 50 cells per well; well left out of scoring; outcome = inactive
Sf3b1 (splicing factor 3b, subunit 1) → nuclear/cytoplasmic p65 ratio, rep 1 = 1.2; nuclear/cytoplasmic p65 ratio, rep 2 = 1.03; low cell count flag = fewer than 50 cells per well; well left out of scoring; outcome = inactive
Glg1 (golgi apparatus protein 1) → p65 translocation robust z-score = -0.62; nuclear/cytoplasmic p65 ratio, rep 1 = 1.38; nuclear/cytoplasmic p65 ratio, rep 2 = 1.27; low cell count flag = enough cells to score; outcome = inactive
Afg2a (AFG2 AAA ATPase homolog A) → p65 translocation robust z-score = 1.65; nuclear/cytoplasmic p65 ratio, rep 1 = 1.6; nuclear/cytoplasmic p65 ratio, rep 2 = 1.45; low cell count flag = enough cells to score; outcome = inactive
4931431C16Rik (RIKEN cDNA 4931431C16 gene) → nuclear/cytoplasmic p65 ratio, rep 1 = 1.3; nuclear/cytoplasmic p65 ratio, rep 2 = 1.32; low cell count flag = fewer than 50 cells per well; well left out of scoring; outcome = inactive
Trim16 (tripartite motif-containing 16) → p65 translocation robust z-score = -0.98; nuclear/cytoplasmic p65 ratio, rep 1 = 1.25; nuclear/cytoplasmic p65 ratio, rep 2 = 1.08; low cell count flag = enough cells to score; outcome = inactive
Antxr1 (anthrax toxin receptor 1) → p65 translocation robust z-score = -0.09; nuclear/cytoplasmic p65 ratio, rep 1 = 1.58; nuclear/cytoplasmic p65 ratio, rep 2 = 1.69; low cell count flag = enough cells to score; outcome = inactive
Zc3h10 (zinc finger CCCH type containing 10) → p65 translocation robust z-score = -0.75; nuclear/cytoplasmic p65 ratio, rep 1 = 1.48; nuclear/cytoplasmic p65 ratio, rep 2 = 1.59; low cell count flag = enough cells to score; outcome = inactive
Ncapd3 (non-SMC condensin II complex, subunit D3) → p65 translocation robust z-score = -1.31; nuclear/cytoplasmic p65 ratio, rep 1 = 1.47; nuclear/cytoplasmic p65 ratio, rep 2 = 1.26; low cell count flag = enough cells to score; outcome = inactive
Qpctl (glutaminyl-peptide cyclotransferase-like) → p65 translocation robust z-score = -0.97; nuclear/cytoplasmic p65 ratio, rep 1 = 1.22; nuclear/cytoplasmic p65 ratio, rep 2 = 1.34; low cell count flag = enough cells to score; outcome = inactive
Spata9 (spermatogenesis associated 9) → p65 translocation robust z-score = -0.74; nuclear/cytoplasmic p65 ratio, rep 1 = 1.25; nuclear/cytoplasmic p65 ratio, rep 2 = 1.37; low cell count flag = enough cells to score; outcome = inactive
Asic5 (acid-sensing ion channel family member 5) → p65 translocation robust z-score = -0.01; nuclear/cytoplasmic p65 ratio, rep 1 = 1.55; nuclear/cytoplasmic p65 ratio, rep 2 = 1.74; low cell count flag = enough cells to score; outcome = inactive
Mdp1 (magnesium-dependent phosphatase 1) → p65 translocation robust z-score = 0.68; nuclear/cytoplasmic p65 ratio, rep 1 = 1.5; nuclear/cytoplasmic p65 ratio, rep 2 = 1.34; low cell count flag = enough cells to score; outcome = inactive
Phf2 (PHD finger protein 2) → p65 translocation robust z-score = 0.73; nuclear/cytoplasmic p65 ratio, rep 1 = 1.57; nuclear/cytoplasmic p65 ratio, rep 2 = 1.53; low cell count flag = enough cells to score; outcome = inactive
H2-M10.2 (histocompatibility 2, M region locus 10.2) → nuclear/cytoplasmic p65 ratio, rep 1 = 1.17; nuclear/cytoplasmic p65 ratio, rep 2 = 1.21; low cell count flag = fewer than 50 cells per well; well left out of scoring; outcome = inactive
Zfta (zinc finger translocation associated) → nuclear/cytoplasmic p65 ratio, rep 1 = 1.77; nuclear/cytoplasmic p65 ratio, rep 2 = 1.69; low cell count flag = fewer than 50 cells per well; well left out of scoring; outcome = inactive
Cypt1 (cysteine-rich perinuclear theca 1) → p65 translocation robust z-score = 0.93; nuclear/cytoplasmic p65 ratio, rep 1 = 1.33; nuclear/cytoplasmic p65 ratio, rep 2 = 1.42; low cell count flag = enough cells to score; outcome = inactive

Reprinted from above, 3 entries:
Zc3h10 (zinc finger CCCH type containing 10) → p65 translocation robust z-score = -0.75; nuclear/cytoplasmic p65 ratio, rep 1 = 1.48; nuclear/cytoplasmic p65 ratio, rep 2 = 1.59; low cell count flag = enough cells to score; outcome = inactive
Ncapd3 (non-SMC condensin II complex, subunit D3) → p65 translocation robust z-score = -1.31; nuclear/cytoplasmic p65 ratio, rep 1 = 1.47; nuclear/cytoplasmic p65 ratio, rep 2 = 1.26; low cell count flag = enough cells to score; outcome = inactive
Qpctl (glutaminyl-peptide cyclotransferase-like) → p65 translocation robust z-score = -0.97; nuclear/cytoplasmic p65 ratio, rep 1 = 1.22; nuclear/cytoplasmic p65 ratio, rep 2 = 1.34; low cell count flag = enough cells to score; outcome = inactive
